Publication PMC3394726
No constants are given. Whether binding was seen depends on the method and setting.

Chains of the proteins cited; added tags and fusions are not shown. Lines headed by an entry give the natural chain unless they say otherwise; changes in a name come on top. A line that says so, or that is headed by a name, gives the form on record, which may keep a tag or linker. Residues count along the entry.
recombinant human MASP-1 (P48740, residues 20-699): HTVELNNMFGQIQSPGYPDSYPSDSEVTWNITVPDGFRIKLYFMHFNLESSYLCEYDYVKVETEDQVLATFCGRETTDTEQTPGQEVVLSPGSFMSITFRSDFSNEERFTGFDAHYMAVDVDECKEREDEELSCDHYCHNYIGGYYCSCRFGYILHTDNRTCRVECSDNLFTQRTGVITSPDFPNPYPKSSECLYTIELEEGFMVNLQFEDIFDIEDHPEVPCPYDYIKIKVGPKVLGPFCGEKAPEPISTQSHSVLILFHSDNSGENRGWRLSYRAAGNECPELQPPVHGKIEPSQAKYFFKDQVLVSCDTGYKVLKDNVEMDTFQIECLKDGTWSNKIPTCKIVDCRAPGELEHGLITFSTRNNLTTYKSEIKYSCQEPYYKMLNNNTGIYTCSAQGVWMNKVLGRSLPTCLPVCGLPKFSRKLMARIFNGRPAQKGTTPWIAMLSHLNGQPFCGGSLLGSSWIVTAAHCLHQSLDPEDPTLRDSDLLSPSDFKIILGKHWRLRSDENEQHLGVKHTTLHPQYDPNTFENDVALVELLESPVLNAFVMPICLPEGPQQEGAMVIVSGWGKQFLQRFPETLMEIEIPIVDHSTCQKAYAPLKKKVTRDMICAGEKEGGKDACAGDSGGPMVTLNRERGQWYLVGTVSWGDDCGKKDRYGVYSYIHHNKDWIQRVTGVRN
recombinant MASP-3 (P48740, form named): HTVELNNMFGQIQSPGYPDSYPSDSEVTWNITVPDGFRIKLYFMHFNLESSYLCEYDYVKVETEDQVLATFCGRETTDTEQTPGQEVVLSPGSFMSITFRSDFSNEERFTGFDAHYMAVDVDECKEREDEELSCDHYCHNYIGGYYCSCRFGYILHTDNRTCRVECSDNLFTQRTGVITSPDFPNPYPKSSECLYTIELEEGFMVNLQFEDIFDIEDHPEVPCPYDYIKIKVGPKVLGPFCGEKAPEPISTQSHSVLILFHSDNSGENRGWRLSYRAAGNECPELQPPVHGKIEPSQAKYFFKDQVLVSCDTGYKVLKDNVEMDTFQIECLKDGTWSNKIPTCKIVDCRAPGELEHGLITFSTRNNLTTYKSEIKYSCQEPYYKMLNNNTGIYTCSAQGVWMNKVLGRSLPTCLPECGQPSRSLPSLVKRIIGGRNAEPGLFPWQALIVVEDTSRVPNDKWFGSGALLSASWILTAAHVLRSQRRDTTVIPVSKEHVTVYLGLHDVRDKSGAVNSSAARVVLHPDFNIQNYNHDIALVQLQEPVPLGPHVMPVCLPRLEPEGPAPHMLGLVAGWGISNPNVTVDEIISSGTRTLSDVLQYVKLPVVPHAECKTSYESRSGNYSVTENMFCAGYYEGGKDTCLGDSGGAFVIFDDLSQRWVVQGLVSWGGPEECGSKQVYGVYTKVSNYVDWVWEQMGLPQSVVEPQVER
UniProt O00187, residues 16-686: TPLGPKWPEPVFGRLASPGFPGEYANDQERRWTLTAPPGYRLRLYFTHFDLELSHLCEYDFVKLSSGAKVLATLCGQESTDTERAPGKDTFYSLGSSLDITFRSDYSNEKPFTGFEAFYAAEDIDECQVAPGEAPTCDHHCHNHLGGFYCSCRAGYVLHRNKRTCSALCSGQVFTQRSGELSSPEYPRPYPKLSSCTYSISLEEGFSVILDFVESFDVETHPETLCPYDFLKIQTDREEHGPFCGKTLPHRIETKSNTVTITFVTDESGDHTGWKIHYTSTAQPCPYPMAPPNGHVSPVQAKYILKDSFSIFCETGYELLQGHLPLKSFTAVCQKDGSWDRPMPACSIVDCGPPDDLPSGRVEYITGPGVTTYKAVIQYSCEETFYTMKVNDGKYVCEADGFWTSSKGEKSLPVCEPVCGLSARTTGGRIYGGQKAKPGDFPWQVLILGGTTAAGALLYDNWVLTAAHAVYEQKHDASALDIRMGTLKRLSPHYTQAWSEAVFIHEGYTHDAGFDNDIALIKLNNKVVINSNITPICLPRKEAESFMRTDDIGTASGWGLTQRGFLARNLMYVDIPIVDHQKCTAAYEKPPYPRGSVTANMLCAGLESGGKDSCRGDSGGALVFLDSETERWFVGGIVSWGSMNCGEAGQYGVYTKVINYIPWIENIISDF

Experiments:
[1] = molecular target: recombinant human MASP-1 (human) (UniProt P48740); experiment: SDS-stable serpin/protease complex on SDS-PAGE; increasing concentrations of MASP-1 or MASP-2 incubated with SMSB3 and SMSB4 for 1 h at room temperature; 10% SDS-PAGE; shows covalent complexes only; both purified
[2] = molecular target: recombinant human MASP-2 (human) (UniProt O00187); experiment: as above
[3] = molecular target: recombinant MASP-3 (human) (UniProt P48740); experiment: SDS-stable serpin/protease complex on SDS-PAGE; C1r, C1s, MASP-1, MASP-2 or MASP-3 incubated with SMSB3, SMSB4 or human C1-inhibitor for 1 h at room temperature; 10% SDS-PAGE; shows covalent complexes only; both purified
[4] = molecular target: recombinant human MASP-1 (human) (UniProt P48740); experiment: as above
[5] = molecular target: recombinant human MASP-2 (human) (UniProt O00187); experiment: as above

Measured: binding

B1: scabies mite serpin SMSB4, wild type (protein, UniProt A0A834R821 30-498)
chain: KPQHHSQSHQQPVLASDPNEDPLKALNLLQQQKQFTEHFFQQNNEKLNLLGGQEIIKCFDVNFTSNVLNNIDHISKIMIDGSRHFGLRLFQILNLFEPKTSSPGLVYSPISVWSTLILTYLGSDGVTEQELSQKLKLNQLPKPLVALAYRSLKWWKDFNVLKLMQNHTDATQVCSANKLYINDHLLVKDCFRTIFGDEIEMKSFSSRPQESLSEINDWVRVQTQGHIPNLLGPESISSNTNIVMINAVYFKSFWAQQFDSSKTKKQRFYVSMNEELEADMMTMDSVSVMYGISEELRASAVEIPYSNPDYSFLIILPDITRSLDSMIRTLTWNKIQLLLQNMYDDEVKLMIPKFRSEQEFELAGPLFSLGIKKLFDPRYANLNSIFMNSNNSRVALDSVIHKSFISVDEEGTEAAAATAVIFARSGRPAFPTEFIADRPFLYIIRDVSSNQLLFIGTVRRPYASQAIVA
no binding: all assays above
